The whole screen tested about 340,000 compounds, of which about 170 (0.05%) were called active. Inconclusive results, whose numbers are uncertain, are shown with a selection of clear calls. The call rests on the fitted dose curve; in most records, active means well fitted inhibition curve with a large enough effect in the signal ratio, with a control signal flat (not every such curve was filed as active); inconclusive means small, poorly fitted or top-dose-only effect, or effect the other way, or a change in a side signal; inactive means flat fitted curve, though single readings scatter; the % refers to the signal ratio. Where the call is inconclusive, the potency comes from a doubtful curve fit.
Assay: qHTS Assay to Find Inhibitors of Chronic Active B-Cell Receptor Signaling;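 on activity change, negative = inhibition: plate controls were basal doxycycline-induced cells for no effect and cells given 10 µM MG132 for full effect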
Details: ABC-DLBCL IkBa-CBG/CBR reporter, luminescence ratio (green luciferase fused to IkBa over red control in TMD8 lymphoma cells), 4 h; activity change, negative = inhibition: at 46.1 µM (top of the series) unless noted
Outline: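 Cell line TMD8 (human ABC DLBCL), stably expressing tet-inducible CBG68-IkBa fusion and CBR; IMDM/0.5% FBS; cpd up to 46 uM; dox induction, 4 h, 37C/5% CO2; dual luminescence; green/red ratio; MG132 control.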
With COc1cccc(C(=O)Nc2nc(SCc3ccc(Cl)cc3)n[nH]2)c1 the Potency was inconclusive: 35.5 µM [falling, single point].
In the case of CC1=C(C(=O)Nc2cccnc2)C(c2ccc3c(c2)OCO3)C2=C(CCCC2=O)N1 (configuration not stated), the activity change, negative = inhibition is reported as inconclusive: 17.8%.
With Cc1ccc(C(=O)OCC(=O)Nc2cccc(S(=O)(=O)N3CCCCC3)c2)o1 the activity change, negative = inhibition was “inactive”.
For COc1cccc(NC(=S)NNC(=O)Cn2nc([N+](=O)[O-])cc2C)c1, the activity change, negative = inhibition was inconclusive: 13.4%.
In the case of O=c1c2ccc(Cl)cc2nc(-c2cccc(C(F)(F)F)c2)n1O, the activity change, negative = inhibition is reported as “inactive”.
In the case of COc1ccc2c(CC(=O)NNC(=O)c3ccc(O)cc3)coc2c1, the activity change, negative = inhibition is reported as inconclusive: -18%.
For COCC1CCCN(Cc2nc(Cc3ccccc3)no2)C1 (configuration not stated), the activity change, negative = inhibition was inconclusive: 5.56%.
With CCOC(=O)C1=C(c2ccccc2)N(C)C(=O)NC1c1ccc(O)c(OC)c1 (configuration not stated) the activity change, negative = inhibition was inconclusive: 0.003%.
With COc1ccc(-[n+]2c(C)cc(/C=C3\Sc4ccccc4N3C)cc2C)cc1 the Potency was inconclusive: 25.1 µM [falling, single point].
In the case of Fc1ccc(COc2cccc(CNCc3ccncc3)c2)cc1, the activity change, negative = inhibition is reported as “inactive”.
With CC1CC(C)(C)NC(=S)N1CCCC(=O)Nc1ccc2c(c1)OCCO2 (configuration not stated) the activity change, negative = inhibition was inconclusive: -28.2%.
For O=[N+]([O-])c1ccc(C(O)CNC(=S)Nc2ccccc2)cc1 (configuration not stated), the activity change, negative = inhibition was inconclusive: 6.47%.
With COCCCn1c(=S)[nH]c2c(sc3ccccc32)c1=O the activity change, negative = inhibition was inconclusive: 0.415%.
For CC(=O)O[C@]1(C(C)=O)CC[C@H]2[C@@H]3C=C(C)C4=CC(=O)CC[C@]4(C)[C@H]3CC[C@@]21C, the activity change, negative = inhibition was inconclusive: -1.83%.
With CC(C)C(=O)N1CCC(c2nc(-c3ccc(S(=O)(=O)N4CCN(C)CC4)cc3)no2)CC1 the activity change, negative = inhibition was inconclusive: 5.27%.
For O=C(CNC(=S)NC(=O)c1ccco1)c1ccccc1, the activity change, negative = inhibition was inconclusive: -24.2%.
In the case of CCOC(=O)C1=C(CN2CCOCC2)NC(=O)NC1c1cc(C)ccc1C (configuration not stated), the activity change, negative = inhibition is reported as inconclusive: 9.55%.
For O=C(NCc1ccco1)c1cc2nc(-c3cccs3)cc(C(F)(F)F)n2n1, the activity change, negative = inhibition was “inactive”.
For COc1ccc(OC)c(NC(=O)Nc2ccccc2C)c1, the Potency was inconclusive: 16.4 µM [falling, single point].
For COC(=O)/C=C/c1cnc2ccccc2c1, the activity change, negative = inhibition was inconclusive: 0.874%.
In the case of Cc1ccc(NC(=O)/C(Cl)=C/c2ccccc2)cc1C, the Potency is reported as inconclusive: 3.66 µM [falling, partial curve].
For Cc1cc(Cl)c2c(c1)[C@]1(C(=O)N2)[C@@H]2C(=O)N(Cc3ccccc3)C(=O)[C@@H]2[C@@H]2CCCN21, the activity change, negative = inhibition was inconclusive: -4.7%.
With O=[N+]([O-])c1ccc(/C=N/Nc2nc(N3CCCC3)nc(N3CCCC3)n2)o1 the activity change, negative = inhibition was inconclusive: -0.413%.
For O=C(c1cnccn1)N(Cc1ccco1)C1(C(=O)NC2CCCCC2)CCCCC1, the activity change, negative = inhibition was inconclusive: 10.9%.
For Cn1nnnc1SCC(=O)NCc1cc([N+](=O)[O-])ccc1O, the activity change, negative = inhibition was inconclusive: 8.05%.
With COc1ccccc1NC(=O)c1ccc(COc2ccc3c(c2)CCC3)cc1 the Potency was inconclusive: 18.4 µM [falling, partial curve].
In the case of Cc1ccc(/C(N)=N/OC(=O)COc2ccccc2Cl)cc1, the activity change, negative = inhibition is reported as inconclusive: 7.63%.
With N#C/C(=C\c1ccccc1OCc1ccc(C(=O)O)cc1)c1ccccc1 the Potency was inconclusive: 15.8 µM [rising, partial curve, poor fit].
In the case of O=C(O)c1ccc(N2N=C(c3ccccc3)CC2c2ccccc2)cc1 (configuration not stated), the Potency is reported as inconclusive: 15.8 µM [falling, partial curve].
In the case of CCOc1ccc(-c2cnc(NCc3cccc4ccccc34)n2CCOC)cc1, the activity change, negative = inhibition is reported as “inactive”.
With CN(Cc1ccco1)C(=O)CSc1nn2c(=O)c(C(C)(C)C)nnc2s1 the activity change, negative = inhibition was inconclusive: 0.208%.
For CCCCCn1c(-c2ccco2)nc2nc3ccccc3nc21, the activity change, negative = inhibition was inconclusive: 2.35%.
For CCCNC(=O)c1oc2ccc3c(c2c1C)C(=O)CC(C)(C)O3, the activity change, negative = inhibition was “inactive”.
For COc1ccccc1-n1c(SC)nc(O)cc1=O, the activity change, negative = inhibition was inconclusive: 22.2%.
With C[C@H]1CN([C@@H](C)CO)C(=O)c2cccc(NC(=O)c3ccc(-c4nccs4)cc3)c2O[C@@H]1CN(C)C(=O)NC1CCCCC1 the activity change, negative = inhibition was inconclusive: -1.16%.
With Cc1ccc(NC(=O)CN2C(=O)c3ccccc3S2(=O)=O)cc1C the Potency was inconclusive: 7.08 µM [falling, partial curve, poor fit].
With NC(=S)c1cc2ccc(O)cc2oc1=O the Potency was inconclusive: 2.51 µM [falling, full curve].
In the case of C/C(N)=C(/C#N)C(=O)CSc1nc2ccccc2n1CC(C)C, the activity change, negative = inhibition is reported as inconclusive: 4.51%.
With CCCCC(=O)Nc1cnc(NC(=O)c2cccs2)cc1C the activity change, negative = inhibition was inconclusive: -11.4%.
With Cc1ccc(C)c(C(=O)CSc2nnnn2C(C)C)c1 the Potency was inconclusive: 18.4 µM [falling, single point].
With Clc1cc(Cl)cc(CN2CCSCC2)c1 the activity change, negative = inhibition was inconclusive: 0.11%.
In the case of O=C(Nc1nc(-c2cccs2)c(-c2cccs2)s1)C1CCCC1, the Potency is reported as inconclusive: 3.66 µM [rising, full curve].
In the case of CC(C(=O)Nc1cccc([N+](=O)[O-])c1)N1CCN(C/C=C/c2ccccc2)CC1 (configuration not stated), the activity change, negative = inhibition is reported as inconclusive: 6.15%.
For CCOC(=O)c1ccc(S(=O)(=O)N2CCN(CCC#N)CC2)cc1, the activity change, negative = inhibition was “inactive”.
For CCOC(=O)C1=C(C)N=c2s/c(=C\c3ccc(O)c([N+](=O)[O-])c3)c(=O)n2C1c1ccccc1OC (configuration not stated), the activity change, negative = inhibition was “inactive”.
With Cc1ccc(Cl)cc1N1CCN(Cc2nc3c(c(=O)[nH]c(=O)n3C)n2CCc2ccccc2)CC1 the activity change, negative = inhibition was inconclusive: 12.3%.
With Cc1ccc(C2=N/C(=C/N3CCOCC3)C(=O)O2)cc1 the activity change, negative = inhibition was “inactive”.
With COc1ccc(-c2noc(CN(C)Cc3ccccc3)n2)cc1 the activity change, negative = inhibition was inconclusive: 0.186%.
In the case of C=CCn1c(=O)c2ccc(C(=O)NCc3ccccc3)cc2n(Cc2ccc(Cl)cc2)c1=O, the activity change, negative = inhibition is reported as “inactive”.
For Cc1cc(C)c2c(NC(=O)CCl)nn(C)c2n1, the Potency was inconclusive: 31.6 µM [falling, single point].
With CN(C)C1(CNC(=O)Nc2ccccc2)CCCCC1 the activity change, negative = inhibition was inconclusive: 1.5%.
With OC(CNC1CCCCC1)CNC1CCCCC1 the Potency was inconclusive: 35.5 µM [falling, single point].

Source: PubChem BioAssay AID493014 (National Center for Advancing Translational Sciences (NCATS), 2011)
Potency means the concentration at half of the fitted maximal effect.
